According to PubChem BioAssay AID1471 (National Center for Advancing Translational Sciences (NCATS), 2008):
The whole screen tested about 230,000 compounds, of which about 310 (0.13%) were called active. The inconclusive results got no clear call from the source; some entries with a clear call stand among them for comparison. Calls come from the whole dose curve; as a rule, active = well fitted activation curve with a large enough effect; inconclusive = small, poorly fitted or top-dose-only effect; inactive = no such curve, though single readings can be large or run the other way. A potency beside an inconclusive call is a rough fit, not a confirmed value.

Assay: qHTS Multiplex Assay to Identify Dual Action Probes in a Cell Model of Huntington: Cytoprotection (ATP); note: nearly all actives have a fitted effect of over 45% in size;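 for cytoprotection (ATP increase): toxic huntingtin expression switched on by the ecdysone agonist tebufenozide; % of control where 0% means no effect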
Conditions: PC12 HTT-Q103 induced, ATP luminescence, 40 h; cytoprotection (ATP increase): at 56.4 µM (top of the series) unless noted
Procedure, shortened: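 PC12 cells with ecdysone-inducible HTT exon 1 Q103-GFP, induced with 100 nM tebufenozide and co-treated with library compounds in a dose series (1536-well, 1500 cells/well). Cytoprotection read as ATP content by ATPlite luminescence.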
Potency is the fitted concentration of half-maximal effect.

Compound | Potency | cytoprotection (ATP increase)
Cc1ccc(Cn2c(=S)[nH]c3ccc(N4CCOCC4)cc3c2=O)o1 | inconclusive: 31.6 µM [activator, single point] | 
CCN(CC)C(=O)CSc1nc2sc(C)c(C)c2c(=O)[nH]1 |  | inactive: 1.36%
Cc1ccccc1OCC(=O)NN1CCN(C)CC1 | inconclusive: 3.16 µM [activator, single point] | 
CC(C)(C)c1cc(CCC(=O)NNC(=S)NC(=O)c2ccccc2)cc(C(C)(C)C)c1O | inconclusive: 3.55 µM [activator, single point] | 
CCCCN1CCCC[C@H]1C(=O)Nc1c(C)cccc1C | inconclusive: 0.1 µM [activator, full curve, poor fit] | 
CCOC(=O)CN1C(=O)N[C@@H](c2cccc(C(F)(F)F)c2)[C@@H](C(=O)OC)[C@H]1C | inconclusive: 0.562 µM [activator, single point] | 
O=[N+]([O-])c1cccc(C(F)(F)F)c1 |  | inactive: -0.562%
O=C(NCCCCCCNC(=O)ON=C1CCCCC1)ON=C1CCCCC1 | inconclusive: 0.0079 µM [activator, full curve, poor fit] | 
O=C(NCCN1CCOCC1)c1ccc(CS(=O)(=O)Cc2ccccc2F)o1 | inconclusive: 5.62 µM [activator, single point] | 
CNC(=O)CSc1n[nH]c(-c2cc(Cl)ccc2OC)n1 | inconclusive: 5.62 µM [activator, single point] | 
N#Cc1cc2[nH]c3ccccc3c2[n+](-c2ccc([N+](=O)[O-])cc2)c1N | inconclusive: 31.6 µM [activator, single point] | 
O=C(N/N=C\C=C\c1ccc2c(c1)OCO2)C1COc2cc3ccccc3cc2O1 (stereo not drawn) | inconclusive: 3.16 µM [activator, partial curve] | 
NS(=O)(=O)c1cc2c(cc1Cl)N[C@@H](CC1CCCC1)NS2(=O)=O | inconclusive: 0.501 µM [activator, full curve, poor fit] | 
O=C(O)C(Cc1cc(I)c(O)c(I)c1)c1ccccc1 (stereo not drawn) | inconclusive: 0.501 µM [activator, full curve, poor fit] | 
CCOc1ccc(N=Nc2c(=O)[nH]n3c(C)cc(C)nc23)cc1 |  | inactive: 0.0378% [at 10 µM]
COc1ccccc1-c1noc(CCC(=O)Nc2cccc(C)c2)n1 | inconclusive: 0.708 µM [activator, full curve, poor fit] | 
Cc1nc(NC(=O)C(Cl)Cl)sc1C(=O)N(C)C | inconclusive: 5.62 µM [activator, single point] | 
COCCN1C(=O)N[C@@H](c2ccccc2)[C@H](C(=O)OC)[C@H]1C | inconclusive: 0.794 µM [activator, single point] | 
NC(=S)Nc1ccc2c(c1)OCO2 | inconclusive: 5.62 µM [activator, single point] | 
CCC(=O)NC(NC(=O)CC)C(Cl)Cl | inconclusive: 3.98 µM [activator, single point] | 
CC1(c2nnc(-c3ccccc3)o2)CC(c2ccc(F)cc2)=NO1 (stereo not drawn) | inconclusive: 0.447 µM [activator, partial curve] | 
O=C1c2cnc3nc(SCc4cccc(Cl)c4)nn3c2CC2c3ccccc3CCN12 (stereo not drawn) | inconclusive: 2.24 µM [activator, partial curve, poor fit] | 

Compound | Potency | cytoprotection (ATP increase)
CCSC1(SCC)N=C(N)C2(C#N)C(c3ccccc3)NC3=C(CCC3)C12C#N (stereo not drawn) | inconclusive: 1.26 µM [activator, single point] | 
O=C(COc1ccc(Cl)cc1Cl)Nc1ccc(Cl)cn1 |  | inactive: -14.3%
CC(C)N1CCC(=NNC(=O)c2ccccc2[N+](=O)[O-])CC1 | inconclusive: 0.316 µM [activator, partial curve] | 
Cc1cc(C(C)(C)C)nc2[nH]n(-c3ccccc3)c(=O)c12 |  | inactive: -13.6%
CCCc1c(C(=O)NNc2cc(C(F)(F)F)ccc2Cl)cnn1-c1ccccc1 |  | inactive: -9.51% [at 10 µM]
CCCN1C2CCCC1CC(NC(=S)Nc1cc(C)ccc1C)C2 (stereo not drawn) |  | inactive: -10.4% [at 1.9 µM]
COc1cc(/C=N/NC(N)=S)ccc1OC(=O)c1ccc(C)cc1 | inconclusive: 35.5 µM [activator, single point] | 
Cc1nc2sccc2c(=O)n1N | active: 3.55 µM | 
CCNC(=S)Nc1ccc(N2CCCCC2)cc1 | inconclusive: 0.501 µM [activator, full curve, poor fit] | 
CSCCC(NC(=O)c1ccco1)C(=O)OCc1cc([N+](=O)[O-])cc2c1OCOC2 (stereo not drawn) | inconclusive: 31.6 µM [activator, single point] | 
CN(C)CCCN(C(=O)COc1ccccc1)c1nc2ccc(F)cc2s1 |  | inactive: -36%
O=C(Nc1ccc(F)cc1)C1CC(=O)n2ncnc2N1 (stereo not drawn) | inconclusive: 3.16 µM [activator, partial curve, poor fit] | 
CC12C=C(/C=C/c3ccc(Br)cc3)C(C)(C1)[C@H](c1ccc(Br)cc1)CC2=O (stereo partly drawn) | inconclusive: 3.55 µM [activator, single point] | 
CCOc1cc(C2C(C#N)=C(N)Oc3n[nH]c(-c4ccncc4)c32)cc([N+](=O)[O-])c1O (stereo not drawn) | inconclusive: 1.26 µM [activator, single point] | 
O=C(O)CC1(CC(=O)Nc2ccc(F)c(Cl)c2)CCCCC1 |  | inactive: 9.61% [at 10 µM]
CCN(/C=N/c1sc2c(c1C#N)CCCCC2)CC |  | inactive: -6.67%
Cc1nc([N+](=O)[O-])c(Sc2nc3ccc([N+](=O)[O-])cc3[nH]2)n1Cc1ccccc1 | inconclusive: 5.62 µM [activator, single point] | 
COCC(=O)N1CCC2(CCCN(Cc3cc(C(F)(F)F)cc(C(F)(F)F)c3)C2)CC1 | inconclusive: 0.0063 µM [activator, full curve, poor fit] | 
CCNc1ccc2noc3c2c1C(=O)c1ccccc1-3 |  | inactive: 27.4% [at 10 µM]
Cc1cccn2c(CN(C)C3CCOC3)c(C(=O)N3CCCCC3)nc12 (stereo not drawn) | inconclusive: 2.82 µM [activator, partial curve] | 
CCCNC(C)(C)COC(=O)c1ccccc1 | inconclusive: 0.199 µM [activator, full curve, poor fit] | 

Fetched by compound from above:
Compound | Potency | cytoprotection (ATP increase)
CN(C)CCCN(C(=O)COc1ccccc1)c1nc2ccc(F)cc2s1 |  | inactive: -36%
CC12C=C(/C=C/c3ccc(Br)cc3)C(C)(C1)[C@H](c1ccc(Br)cc1)CC2=O (stereo partly drawn) | inconclusive: 3.55 µM [activator, single point] | 
